From the supplement of paper PMC8728848
This is one part of the list.

Assays:
Assay in all cases: glycan array binding signal (z-score within array); higher = stronger binding
Settings in all cases: glycan notation: IUPAC condensed, linker removed
[1] = molecular target: Gal(b1-4)GlcNAc(b1-3)Gal(b1-4)[Fuc(a1-3)]GlcNAc(b1-3)Gal(b1-4)[Fuc(a1-3)]GlcNAc
Summary of the method: (§1)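 The binding signal is a Z-score computed within each array. Data were drawn from 3228 arrays in the Consortium for Functional Glycomics database, restricted to those with a known protein sequence. Scores were averaged over arrays of the same protein sequence at different concentrations or buffers, and over linkers, and negative values can be taken as non-binding.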

[2] = molecular target: Gal(b1-4)GlcNAc(b1-3)GalNAc
Summary of the method: as §1

[3] = molecular target: Gal(b1-4)GlcNAc(b1-3)[Fuc(a1-3)GlcNAc(b1-6)]Gal(b1-4)Glc
Summary of the method: as §1

[4] = molecular target: Gal(b1-4)GlcNAc(b1-3)[Gal(b1-4)GlcNAc(b1-6)]Gal(b1-4)GlcNAc
Summary of the method: as §1

[5] = molecular target: Gal(b1-4)GlcNAc(b1-3)[Gal(b1-4)GlcNAc(b1-6)]GalNAc
Summary of the method: as §1

[6] = molecular target: Gal(b1-4)GlcNAc(b1-3)[GlcNAc(b1-6)]Gal(b1-4)GlcNAc
Summary of the method: as §1

[7] = molecular target: Gal(b1-4)GlcNAc(b1-6)Gal(b1-4)GlcNAc
Summary of the method: as §1

[8] = molecular target: Gal(b1-4)GlcNAc(b1-6)GalNAc
Summary of the method: as §1

[9] = molecular target: Gal(b1-4)GlcNAc(b1-6)[Gal(b1-3)]GalNAc
Summary of the method: as §1

[10] = molecular target: Gal(b1-4)GlcNAc(b1-6)[Gal(b1-4)GlcNAc(b1-3)]GalNAc
Summary of the method: as §1

[11] = molecular target: Gal(b1-4)GlcNAc6P
Summary of the method: as §1

[12] = molecular target: Gal(b1-6)Gal
Summary of the method: as §1

[13] = molecular target: Gal3S(b1-3)GalNAc
Summary of the method: as §1

[14] = molecular target: Gal3S(b1-3)GlcNAc
Summary of the method: as §1

[15] = molecular target: Gal3S(b1-3)[Fuc(a1-4)]GlcNAc
Summary of the method: as §1

[16] = molecular target: Gal3S(b1-4)Glc
Summary of the method: as §1

[17] = molecular target: Gal3S(b1-4)Glc6S
Summary of the method: as §1

[18] = molecular target: Gal3S(b1-4)GlcNAc
Summary of the method: as §1

[19] = molecular target: Gal3S(b1-4)GlcNAc6S
Summary of the method: as §1

[20] = molecular target: Gal3S(b1-4)[Fuc(a1-3)]Glc
Summary of the method: as §1

[21] = molecular target: Gal3S(b1-4)[Fuc(a1-3)]Glc6S
Summary of the method: as §1

[22] = molecular target: Gal3S(b1-4)[Fuc(a1-3)]GlcNAc
Summary of the method: as §1

[23] = molecular target: Gal3S(b1-4)[Fuc(a1-3)]GlcNAc6S
Summary of the method: as §1

[24] = molecular target: Gal3S4S(b1-4)GlcNAc
Summary of the method: as §1

[25] = molecular target: Gal3S6S(b1-4)GlcNAc
Summary of the method: as §1

[26] = molecular target: Gal3S6S(b1-4)GlcNAc6S
Summary of the method: as §1

[27] = molecular target: Gal4S(b1-4)GlcNAc
Summary of the method: as §1

[28] = molecular target: Gal4S6S(b1-4)GlcNAc
Summary of the method: as §1

[29] = molecular target: Gal6P(b1-4)GlcNAc
Summary of the method: as §1

[30] = molecular target: Gal6S(b1-3)GlcNAc
Summary of the method: as §1

[31] = molecular target: Gal6S(b1-3)GlcNAc6S
Summary of the method: as §1

[32] = molecular target: Gal6S(b1-4)Glc
Summary of the method: as §1

[33] = molecular target: Gal6S(b1-4)Glc6S
Summary of the method: as §1

[34] = molecular target: Gal6S(b1-4)GlcNAc
Summary of the method: as §1

[35] = molecular target: Gal6S(b1-4)GlcNAc6S
Summary of the method: as §1

[36] = molecular target: GalNAc(a1-3)Gal
Summary of the method: as §1

[37] = molecular target: GalNAc(a1-3)GalNAc
Summary of the method: as §1

[38] = molecular target: GalNAc(a1-3)GalNAc(b1-3)Gal(a1-4)Gal(b1-4)Glc
Summary of the method: as §1

[39] = molecular target: GalNAc(a1-3)GalNAc(b1-3)Gal(a1-4)Gal(b1-4)GlcNAc
Summary of the method: as §1

[40] = molecular target: GalNAc(b1-3)Gal
Summary of the method: as §1

[41] = molecular target: GalNAc(b1-3)Gal(a1-4)Gal(b1-4)GlcNAc
Summary of the method: as §1

[42] = molecular target: GalNAc(b1-3)Gal(a1-4)Gal(b1-4)GlcNAc(b1-3)Gal(b1-4)Glc
Summary of the method: as §1

[43] = molecular target: GalNAc(b1-3)Gal(a1-6)Gal(b1-4)Glc
Summary of the method: as §1

[44] = molecular target: GalNAc(b1-3)GalNAc
Summary of the method: as §1

[45] = molecular target: GalNAc(b1-3)GlcNAc
Summary of the method: as §1

[46] = molecular target: GalNAc(b1-4)Gal(b1-4)Glc
Summary of the method: as §1

[47] = molecular target: GalNAc(b1-4)GlcNAc
Summary of the method: as §1

[48] = molecular target: GalNAc(b1-4)GlcNAc(b1-2)Man
Summary of the method: as §1

[49] = molecular target: GalNAc(b1-4)GlcNAc(b1-2)Man(a1-3)[GalNAc(b1-4)GlcNAc(b1-2)Man(a1-6)]Man(b1-4)GlcNAc(b1-4)GlcNAc
Summary of the method: as §1

[50] = molecular target: GalNAc(b1-4)GlcNAc(b1-3)GalNAc(b1-4)GlcNAc
Summary of the method: as §1

[51] = molecular target: GalNAc(b1-4)GlcNAc6S
Summary of the method: as §1

[52] = molecular target: GalNAc(b1-6)GalNAc
Summary of the method: as §1

[53] = molecular target: GalNAc3S(b1-4)GlcNAc
Summary of the method: as §1

[54] = molecular target: GalNAc3S(b1-4)GlcNAc3S
Summary of the method: as §1

[55] = molecular target: GalNAc3S(b1-4)[Fuc(a1-3)]GlcNAc
Summary of the method: as §1

[56] = molecular target: GalNAc4S6S(b1-4)GlcNAc
Summary of the method: as §1

[57] = molecular target: GalNAc6S(b1-4)GlcNAc
Summary of the method: as §1

[58] = molecular target: Glc(a1-4)Glc
Summary of the method: as §1

[59] = molecular target: Glc(a1-4)Glc(a1-4)Glc(a1-4)Glc
Summary of the method: as §1

[60] = molecular target: Glc(a1-6)Glc(a1-6)Glc
Summary of the method: as §1

[61] = molecular target: Glc(a1-6)Glc(a1-6)Glc(a1-6)Glc
Summary of the method: as §1

[62] = molecular target: Glc(b1-4)Glc
Summary of the method: as §1

[63] = molecular target: Glc(b1-6)Glc
Summary of the method: as §1

[64] = molecular target: GlcA(b1-3)Gal
Summary of the method: as §1

[65] = molecular target: GlcA(b1-3)GlcNAc
Summary of the method: as §1

[66] = molecular target: GlcA(b1-6)Gal
Summary of the method: as §1

[67] = molecular target: GlcA3S(b1-3)Gal(b1-4)GlcNAc(b1-2)Man
Summary of the method: as §1

[68] = molecular target: GlcA3S(b1-3)Gal(b1-4)GlcNAc(b1-3)Gal(b1-4)Glc
Summary of the method: as §1

[69] = molecular target: GlcNAc(a1-3)Gal(b1-4)GlcNAc
Summary of the method: as §1

[70] = molecular target: GlcNAc(a1-4)Gal(b1-3)GlcNAc
Summary of the method: as §1

[71] = molecular target: GlcNAc(a1-4)Gal(b1-4)GalNAc
Summary of the method: as §1

[72] = molecular target: GlcNAc(a1-4)Gal(b1-4)GlcNAc
Summary of the method: as §1

[73] = molecular target: GlcNAc(a1-4)Gal(b1-4)GlcNAc(b1-3)Gal(b1-4)Glc
Summary of the method: as §1

[74] = molecular target: GlcNAc(a1-4)Gal(b1-4)GlcNAc(b1-3)Gal(b1-4)GlcNAc
Summary of the method: as §1

[75] = molecular target: GlcNAc(a1-4)Gal(b1-4)GlcNAc(b1-3)Gal(b1-4)GlcNAc(b1-3)Gal(b1-4)GlcNAc
Summary of the method: as §1

B1: MFG-E8 (Mus musculus), P21956 (protein)
chain: MQVSRVLAALCGMLLCASGLFAASGDFCDSSLCLNGGTCLTGQDNDIYCLCPEGFTGLVCNETERGPCSPNPCYNDAKCLVTLDTQRGDIFTEYICQCPVGYSGIHCETETNYYNLDGEYMFTTAVPNTAVPTPAPTPDLSNNLASRCSTQLGMEGGAIADSQISASSVYMGFMGLQRWGPELARLYRTGIVNAWTASNYDSKPWIQVNLLRKMRVSGVMTQGASRAGRAEYLKTFKVAYSLDGRKFEFIQDESGGDKEFLGNLDNNSLKVNMFNPTLEAQYIKLYPVSCHRGCTLRFELLGCELHGCSEPLGLKNNTIPDSQMSASSSYKTWNLRAFGWYPHLGRLDNQGKINAWTAQSNSAKEWLQVDLGTQRQVTGIITQGARDFGHIQYVASYKVAHSDDGVQWTVYEEQGSSKVFQGNLDNNSHKKNIFEKPFMARYVRVLPVSWHNRITLRLELLGC
- glycan array binding signal (z-score) [1]: -0.16
- glycan array binding signal (z-score) [2]: -0.613
- glycan array binding signal (z-score) [3]: -0.543
- glycan array binding signal (z-score) [4]: 0.308
- glycan array binding signal (z-score) [5]: 0.578
- glycan array binding signal (z-score) [6]: -0.605
- glycan array binding signal (z-score) [7]: -0.115
- glycan array binding signal (z-score) [8]: 0.24
- glycan array binding signal (z-score) [9]: -0.422
- glycan array binding signal (z-score) [10]: -0.419
- glycan array binding signal (z-score) [11]: 0.187
- glycan array binding signal (z-score) [12]: 1.1
- glycan array binding signal (z-score) [13]: -0.932
- glycan array binding signal (z-score) [14]: -0.17
- glycan array binding signal (z-score) [15]: 0.267
- glycan array binding signal (z-score) [16]: -0.159
- glycan array binding signal (z-score) [17]: 0.198
- glycan array binding signal (z-score) [18]: -0.46
- glycan array binding signal (z-score) [19]: -0.639
- glycan array binding signal (z-score) [20]: -0.908
- glycan array binding signal (z-score) [21]: 0.661
- glycan array binding signal (z-score) [22]: 0.745
- glycan array binding signal (z-score) [23]: 1.86
- glycan array binding signal (z-score) [24]: 1.21
- glycan array binding signal (z-score) [25]: 1.75
- glycan array binding signal (z-score) [26]: 2.81
- glycan array binding signal (z-score) [27]: -0.4
- glycan array binding signal (z-score) [28]: 1.29
- glycan array binding signal (z-score) [29]: 1.22
- glycan array binding signal (z-score) [30]: 0.37
- glycan array binding signal (z-score) [31]: 3.04
- glycan array binding signal (z-score) [32]: 0.149
- glycan array binding signal (z-score) [33]: 0.108
- glycan array binding signal (z-score) [34]: -0.436
- glycan array binding signal (z-score) [35]: 2.98
- glycan array binding signal (z-score) [36]: -0.652
- glycan array binding signal (z-score) [37]: -0.724
- glycan array binding signal (z-score) [38]: 0.361
- glycan array binding signal (z-score) [39]: -0.695
- glycan array binding signal (z-score) [40]: -0.341
- glycan array binding signal (z-score) [41]: -0.154
- glycan array binding signal (z-score) [42]: 0.031
- glycan array binding signal (z-score) [43]: -0.391
- glycan array binding signal (z-score) [44]: -0.544
- glycan array binding signal (z-score) [45]: -0.265
- glycan array binding signal (z-score) [46]: 0.017
- glycan array binding signal (z-score) [47]: -0.309
- glycan array binding signal (z-score) [48]: -0.038
- glycan array binding signal (z-score) [49]: -0.848
- glycan array binding signal (z-score) [50]: -0.149
- glycan array binding signal (z-score) [51]: 0.057
- glycan array binding signal (z-score) [52]: 0.146
- glycan array binding signal (z-score) [53]: 2.04
- glycan array binding signal (z-score) [54]: 1.39
- glycan array binding signal (z-score) [55]: 0.832
- glycan array binding signal (z-score) [56]: 9.76
- glycan array binding signal (z-score) [57]: 2.28
- glycan array binding signal (z-score) [58]: -0.125
- glycan array binding signal (z-score) [59]: 0.077
- glycan array binding signal (z-score) [60]: -0.076
- glycan array binding signal (z-score) [61]: -0.038
- glycan array binding signal (z-score) [62]: -0.148
- glycan array binding signal (z-score) [63]: 2.4
- glycan array binding signal (z-score) [64]: -0.259
- glycan array binding signal (z-score) [65]: -0.503
- glycan array binding signal (z-score) [66]: -0.784
- glycan array binding signal (z-score) [67]: 0.754
- glycan array binding signal (z-score) [68]: -0.389
- glycan array binding signal (z-score) [69]: -0.136
- glycan array binding signal (z-score) [70]: -0.48
- glycan array binding signal (z-score) [71]: 5.5
- glycan array binding signal (z-score) [72]: -0.566
- glycan array binding signal (z-score) [73]: 0.036
- glycan array binding signal (z-score) [74]: 0.443
- glycan array binding signal (z-score) [75]: 0.185
